Measurements from PubChem BioAssay AID2685 (National Center for Advancing Translational Sciences (NCATS), 2010).
The other results are listed elsewhere or left out. The main result of the screen is listed elsewhere. These columns were measured beside it and carry no call. Most of these compounds were active or inconclusive in the main read-out, so they are no random draw. The note in brackets gives the kind of curve behind each potency; many fits are weak.

Test: qHTS Assay for Lipid Storage Modulators in Drosophila S3 Cells;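 for cell number change: cells counted by Cell Tracker Red CMTPX staining in the red channel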
Conditions: BODIPY lipid droplet fluorescence, 18-24 h; for cell number change: measured here: cell count max response, cells fed with added oleic acid
Summary of the method: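 Drosophila S3 cells got compounds at several concentrations plus oleic acid (400 uM solution). Laser-scanning cytometry with 488 nm excitation read lipid droplets at 500-530 nm and cells at 575-640 nm. Percent activity was relative to 20 uM Triacsin C.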

[1] = measured here: cell number channel AC50, cells fed with added oleic acid
[2] = measured here: lipid fluorescence (Fed channel) AC50, cells fed with added oleic acid

Structure (SMILES) | cell number change | AC50 [1] | AC50 [2]
Cc1ccc(S(=O)(=O)NC(N)=NCCc2ccc(Cl)cc2)cc1 | 31.9% | 29.1 µM [rising, single point] | 18.4 µM [rising, single point]
Cc1ccccc1S(=O)(=O)Cc1ccc(C(=O)N2CC(C)CC(C)C2)o1 (configuration not stated) | 43.7% | 29.1 µM [rising, single point] | 29.1 µM [rising, single point]
O=C(O)CCc1ncc(C(F)(F)F)cc1Cl | -21.4% |  | 
Cc1c(Cl)cccc1NC(=O)Nc1cc(C(C)(C)C)nn1C | -43.5% | 29.1 µM [falling, single point] | 29.1 µM [falling, single point]
CCOc1ccc(S(=O)(=O)Nc2ccc(Cl)cn2)c(C)c1C |  | 6.51 µM [falling, single point] | 6.51 µM [falling, single point]
Cc1csc(NC(=O)C(C)Oc2ccc(Br)cc2)n1 (configuration not stated) | 23.7% |  | 
COc1ccc(N2CCN(C(C)=C3C(=O)c4ccccc4C3=O)CC2)cc1 | -18.8% |  | 23.1 µM [falling, single point]
COc1ccccc1NC(=O)Nc1ccc2c(c1)OCCO2 | 18.9% |  | 29.1 µM [rising, single point]
COc1ccc(-c2nc3ccccn3c2/N=C/c2ccc(OC)c(OC)c2)cc1O | 19.1% | 6.51 µM [rising, single point] | 
CN(C)S(=O)(=O)c1cccc(C(=O)Nc2cc(Cl)cc(Cl)c2)c1 | 25.3% |  | 6.51 µM [falling, single point]
COc1ccc(CCNC(=O)CSc2nnc3ccc(-c4cccnc4)nn23)cc1 | -37.5% | 32.6 µM [falling, single point] | 20.6 µM [falling, single point]
Cc1cccc(NC2=C(NC(=O)c3ccccc3)C(=O)c3ccccc3C2=O)c1 | -55.4% | 18.4 µM [falling, single point] | 16.4 µM [falling, single point]
CN(C)CCCNC(=O)c1cc(Br)ccc1Cl | -125% | 29.1 µM [falling, partial curve] | 0.651 µM [falling, single point]
Cn1cnnc1SCC(=O)Nc1cccc(C(=O)O)c1 | -58.7% | 32.6 µM [falling, single point] | 25.9 µM [falling, partial curve]
O=C(Nc1cnn(C23CC4CC(CC(C4)C2)C3)c1)c1cc(-c2ccccc2)on1 | -14% |  | 0.00461 µM [rising, full curve, poor fit]
O=C(NCc1cc([N+](=O)[O-])ccc1O)c1cccc(NS(=O)(=O)c2ccccc2)c1 | 14.1% |  | 0.13 µM [falling, full curve, poor fit]
O=C(CN1C(=O)COc2ccccc21)N(Cc1cccnc1)Cc1cccc(F)c1 | 19.7% |  | 3.66 µM [rising, partial curve]
CCOC(=O)CCCCC(=O)c1[nH]c(=O)[nH]c1Cn1cnc2ccccc21 | 6.95% |  | 9.2 µM [rising, partial curve, poor fit]
CC(C)(C)c1csc(NC(=O)c2c(F)c(F)c(F)c(F)c2F)n1 | -17.1% |  | 
COc1ccc(S(=O)(=O)Nc2cc(C)ccc2OC)cc1C |  | 2.06 µM [rising, partial curve, poor fit] | 2.31 µM [rising, partial curve]

Structure (SMILES) | cell number change | AC50 [1] | AC50 [2]
O=C(CCn1c(=O)c2ccccc2n(Cc2ccccc2)c1=O)NC1CCN(Cc2ccccc2)CC1 | -20.5% |  | 2.06 µM [falling, full curve, poor fit]
Cc1ccc(NC(=O)CNc2ccccc2N2CCCC2=O)cc1S(=O)(=O)N1CCCCC1 | 3.03% |  | 
O=C(NCc1ccccc1Cl)C1CCN(c2ncnc3c2nc2n3CCCCC2)CC1 | 94.1% | 13 µM [rising, partial curve] | 5.17 µM [rising, single point]
O=C(CNC(=O)C1(c2ccccc2)CC1)Nc1ccc(F)c(F)c1 | 3.96% |  | 0.651 µM [falling, single point]
COc1ccc2nc3cc(Cl)ccc3c(Nc3cc(CN4CCCC4)c(O)c(CN4CCCC4)c3)c2n1 | 4.42% |  | 0.0082 µM [falling, full curve, poor fit]
COc1ccc(CCNC(=O)CN2CCOc3ccccc32)cc1OC | 0.193% |  | 5.8 µM [rising, full curve, poor fit]
Cc1c(Cl)c([N+](=O)[O-])nn1CC(=O)NC(C)c1ccccc1 (configuration not stated) | -1.93% |  | 
Nc1ccccc1-c1n[nH]c(=S)s1 | 14.1% |  | 
CC(=O)Nc1cccc(/C(C)=N/NC(N)=S)c1 | -8.53% |  | 
Cc1cccc(N2CCN(C(=O)c3ccc(CNc4c(N5CCC(C)CC5)c(=O)c4=O)cc3)CC2C)c1 (configuration not stated) | 0.101% |  | 5.8 µM [falling, single point]
Cc1ccc(CC23CN4CCN(CC(C4)C2O)C3)c(C)c1 (configuration not stated) | 3.25% |  | 0.184 µM [rising, full curve, poor fit]
Cc1ccc2nc(SCC(=O)N(C)C3CCS(=O)(=O)C3)[nH]c2c1 (configuration not stated) |  |  | 20.6 µM [falling, partial curve]
COc1ccc(S(=O)(=O)N2CCN(CC3CC=CCC3)CC2)cc1 (configuration not stated) | -6.76% |  | 6.51 µM [rising, single point]
Cc1ccc(-c2nnn(CC(=O)N3CCN(c4ccccc4)CC3)n2)o1 | 18.3% |  | 2.59 µM [rising, single point]
CCOC(=O)N1CCC(Nc2ncnc3c2cnn3-c2ccc(Cl)cc2)CC1 |  | 0.00461 µM [rising, full curve, poor fit] | 0.00517 µM [rising, full curve, poor fit]
COc1ccc(NC(=O)c2cc(C(=O)Nc3ccc(OC)cc3OC)cc([N+](=O)[O-])c2)c(OC)c1 | -2.1% |  | 
Cc1ccc(N(C(=O)Cn2nnc(-c3ccc(C)o3)n2)C(C(=O)NC2CCCC2)c2ccncc2)cc1 (configuration not stated) | -2.56% |  | 
O=C(CN1CCN(c2ccc(Cl)cc2)CC1)Nc1ccc(F)c(F)c1 | 90.4% | 29.1 µM [rising, single point] | 29.1 µM [rising, single point]
Cn1ncnc1SCc1cn2cccnc2n1 | 122% | 18.4 µM [rising, single point] | 29.1 µM [rising, single point]
CCOC(=O)C1CCN(c2c(NCCCN3CCCCC3)c(=O)c2=O)CC1 | -9.1% |  | 0.00517 µM [falling, full curve, poor fit]

A different layout for part of the listing above.
Structure (SMILES),cell number change,AC50 [1],AC50 [2]
O=C(CNC(=O)C1(c2ccccc2)CC1)Nc1ccc(F)c(F)c1,3.96%,,"0.651 µM [falling, single point]"
COc1ccc2nc3cc(Cl)ccc3c(Nc3cc(CN4CCCC4)c(O)c(CN4CCCC4)c3)c2n1,4.42%,,"0.0082 µM [falling, full curve, poor fit]"

Later entries.

Structure (SMILES) | cell number change | AC50 [1] | AC50 [2]
COc1ccccc1C(=O)/C=C/c1ccc(N2CCCCC2)c([N+](=O)[O-])c1 | -60.2% | 18.4 µM [falling, partial curve] | 16.4 µM [falling, partial curve]
O=C(CN1CCN(c2ccccc2)CC1)Nc1ccc(OCc2ccccc2)cc1 | 25.7% |  | 2.06 µM [rising, partial curve]
CCOC(=O)C1(CCC(C)C)CC(CSc2nc3ccccc3[nH]2)OC1=O (configuration not stated) | -20.8% |  | 13 µM [rising, partial curve]
CCOc1nc(-c2ccc(C)cc2)ccc1-c1noc(-c2cccnc2)n1 | 8.97% |  | 11.6 µM [rising, partial curve]
CCOC(=O)c1oc2ccc(S(=O)(=O)n3nc(-c4ccccc4)cc3N)cc2c1C | -50.4% | 20.6 µM [falling, single point] | 18.4 µM [falling, single point]
CCOC(=O)CSc1nc2cc(OCC)ccc2cc1C#N | -31.3% | 32.6 µM [falling, single point] | 6.51 µM [rising, single point]
Cc1ccc(C(=O)Nc2cccc(C(F)(F)F)c2)cc1NC(=O)c1cnnc2ccccc12 | -28.6% |  | 
O=C(COc1coc(CN2CCN(c3ccccc3)CC2)cc1=O)Nc1ccccc1 | -6.37% |  | 6.51 µM [rising, single point]
CCc1ccc(-c2cc(-c3n[nH]c(=S)n3CC)c3ccccc3n2)cc1 | 6.66% |  | 20.6 µM [rising, single point]
Cc1ccc(NS(=O)(=O)c2cc(Br)cnc2N)c(Cl)c1 | 1.53% |  | 
Cc1ccc2c(C(=O)CN3CC(C)CC(C)C3)c(C)[nH]c2c1 (configuration not stated) | -11.7% | 0.00517 µM [falling, full curve, poor fit] | 
Cc1cc(C)c2c(=O)[nH]c(SCc3ccccc3)nc2n1 | -9.22% |  | 
CCC(CC)C1C(C#N)=C(N)Oc2n[nH]c(-c3ccccc3)c21 (configuration not stated) | -42.3% | 2.91 µM [falling, partial curve] | 
Nc1nc(N)nc(-c2ccc(Oc3ccccc3)cc2)n1 | 99.7% | 20.6 µM [rising, single point] | 
Cc1cccn2cc(CCNS(=O)(=O)c3ccc([N+](=O)[O-])cc3)nc12 | -3.45% |  | 29.1 µM [rising, single point]
Cc1cc(C(=O)N2CCN(C(=O)c3ccco3)CC2)ccc1[N+](=O)[O-] | -36.5% |  | 
CCc1noc(C)c1C(=O)N1CCCC(N2CCN(c3ccccc3F)CC2)C1 (configuration not stated) | 43.1% |  | 23.1 µM [rising, partial curve]
CC(OC(=O)c1c[nH]c2ccccc12)C(=O)N1CCCC1 (configuration not stated) | 13.8% |  | 
Cc1ccc2oc(C(=O)N(Cc3ccccc3)C3CCS(=O)(=O)C3)c(C)c2c1 (configuration not stated) | -12.7% |  | 29.1 µM [falling, single point]
CC1=C(C(N)=O)C(c2ccc(Cl)cc2Cl)n2ncnc2N1 (configuration not stated) |  | 0.58 µM [rising, full curve, poor fit] | 
